Record: PubChem BioAssay AID743454 (Peter MacCallum Cancer Centre, 2014)

- Aim: 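Knock-downs lowering viability or raising caspase 3/7 activity in vorinostat-treated resistant cells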 (primary screen)
- Cell system: human HCT116-VR colon cancer cells, selected for vorinostat resistance
- Knock-down reagent: siRNA pool against human genes, 40 nM siRNA pool
- Time to read-out: vorinostat for 24 h, read-out about 72 h after transfection
- Treatment: vorinostat at 2.5 µM final
- Measured: 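Cell viability by CellTiter-Fluor and caspase 3/7 activity by luminescence, each scaled to mock wells per plate, duplicates averaged, then robust z-scored over all plates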
- Scale: viability robust z-score: higher = more viable cells than screen typical; caspase robust z-score: higher = more caspase 3/7 activity than screen typical
- Call rule: 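Hits are knock-downs in viability class RV1/RV2 or caspase class CA1/CA2, excluding ones that killed cells in the no-drug cell-count arm; hits then retested with single siRNAs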
In all, the deposit lists about 18,000 reagents; shown is a random part of them. In the full data, 450 (2.5%) are marked active. 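Single biological run; no consistent viability z cut-off exists, so the class columns, not z-scores, define the calls.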 A number with no mark means an inactive call. No sequences are given here.

{"target":"STARD13","viability hit class":"no change","caspase hit class":"no change","viability robust z-score":0.82,"caspase robust z-score":2.46}
{"target":"G3BP2","viability hit class":"no change","caspase hit class":"no change","viability robust z-score":-0.18,"caspase robust z-score":-0.6}
{"target":"ELSPBP1","viability hit class":"no change","caspase hit class":"no change","viability robust z-score":-0.64,"caspase robust z-score":0.24}
{"target":"IMMP2L","viability hit class":"no change","caspase hit class":"no change","viability robust z-score":-0.5,"caspase robust z-score":1.01}
{"target":"LINC03040","viability hit class":"no change","caspase hit class":"no change","viability robust z-score":0.38,"caspase robust z-score":-0.24}
{"target":"MAP3K21","viability hit class":"no change","caspase hit class":"no change","viability robust z-score":1.82,"caspase robust z-score":0.96}
{"target":"MYO5C","viability hit class":"no change","caspase hit class":"no change","viability robust z-score":0.68,"caspase robust z-score":1.63}
{"target":"PADI1","viability hit class":"no change","caspase hit class":"no change","viability robust z-score":0.04,"caspase robust z-score":-0.4}
{"target":"RFX7","viability hit class":"no change","caspase hit class":"no change","viability robust z-score":0.16,"caspase robust z-score":-0.1}
{"target":"SSBP3","viability hit class":"no change","caspase hit class":"no change","viability robust z-score":-0.92,"caspase robust z-score":-1.21}
{"target":"HCRT","viability hit class":"no change","caspase hit class":"no change","viability robust z-score":1.02,"caspase robust z-score":0.68}
{"target":"PGK1","viability hit class":"no change","caspase hit class":"no change","viability robust z-score":-0.23,"caspase robust z-score":1.64}
{"target":"XAGE1B","viability hit class":"no change","caspase hit class":"no change","viability robust z-score":0.28,"caspase robust z-score":-0.04}
{"target":"SEC61G","viability hit class":"no change","caspase hit class":"no change","viability robust z-score":-1.75,"caspase robust z-score":-0.18}
{"target":"PGAP6","viability hit class":"no change","caspase hit class":"no change","viability robust z-score":1,"caspase robust z-score":-0.22}
{"target":"ABHD15","viability hit class":"no change","caspase hit class":"no change","viability robust z-score":-1.46,"caspase robust z-score":-0.26}
{"target":"DMTN","viability hit class":"no change","caspase hit class":"no change","viability robust z-score":0.86,"caspase robust z-score":-0.4}
{"target":"ALG3","viability hit class":"no change","caspase hit class":"no change","viability robust z-score":0.9,"caspase robust z-score":0.24}
{"target":"PCNT","viability hit class":"no change","caspase hit class":"no change","viability robust z-score":-2.42,"caspase robust z-score":1.03}
{"target":"ATP2A1","viability hit class":"no change","caspase hit class":"no change","viability robust z-score":-2.15,"caspase robust z-score":0.8}
{"target":"ZNF280C","viability hit class":"no change","caspase hit class":"no change","viability robust z-score":1.75,"caspase robust z-score":1.38}
{"target":"MYO19","viability hit class":"no change","caspase hit class":"no change","viability robust z-score":0.5,"caspase robust z-score":-0.3}
{"target":"PI4K2B","viability hit class":"no change","caspase hit class":"no change","viability robust z-score":-0.46,"caspase robust z-score":2.97}
{"target":"ADCY7","viability hit class":"no change (active)","caspase hit class":"CA2 (caspase activation)","viability robust z-score":-0.07,"caspase robust z-score":5.14}
{"target":"MICU3","viability hit class":"no change","caspase hit class":"no change","viability robust z-score":-0.36,"caspase robust z-score":-0.89}
{"target":"IPO7","viability hit class":"no change","caspase hit class":"no change","viability robust z-score":-0.72,"caspase robust z-score":0.12}
{"target":"ACTG1","viability hit class":"no change","caspase hit class":"no change","viability robust z-score":0.34,"caspase robust z-score":-0.83}

In a second layout: results already given.
target,viability hit class,caspase hit class,viability robust z-score,caspase robust z-score
PADI1,no change,no change,0.04,-0.4
RFX7,no change,no change,0.16,-0.1
SSBP3,no change,no change,-0.92,-1.21
